Assay results from patent publication US20260345795A1, “MULTIVALENCY FOR ENZYME INHIBITION” (Indiana University Research and Technology Corporation, priority 2022, published 2026).
The match of structure and compound is tentative.

Protein sequences, listed by entry. Tags and fused reporters are not part of them. Residues count along the entry.
UniProt P00747, 97-580 limits assumed: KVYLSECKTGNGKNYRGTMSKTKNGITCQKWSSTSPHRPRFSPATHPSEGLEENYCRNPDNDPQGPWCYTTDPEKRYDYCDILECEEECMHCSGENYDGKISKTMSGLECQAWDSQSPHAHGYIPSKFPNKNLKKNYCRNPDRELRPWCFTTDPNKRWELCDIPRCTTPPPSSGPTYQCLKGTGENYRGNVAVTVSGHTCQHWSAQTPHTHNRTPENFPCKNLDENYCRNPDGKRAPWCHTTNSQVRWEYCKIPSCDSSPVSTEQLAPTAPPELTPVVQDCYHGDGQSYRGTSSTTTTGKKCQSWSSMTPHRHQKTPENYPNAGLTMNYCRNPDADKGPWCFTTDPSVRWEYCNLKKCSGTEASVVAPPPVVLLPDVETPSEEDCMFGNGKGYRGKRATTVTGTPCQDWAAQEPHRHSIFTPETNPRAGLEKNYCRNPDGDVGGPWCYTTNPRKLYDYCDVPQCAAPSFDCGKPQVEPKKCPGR
UniProt P00747, 581-810 limits assumed: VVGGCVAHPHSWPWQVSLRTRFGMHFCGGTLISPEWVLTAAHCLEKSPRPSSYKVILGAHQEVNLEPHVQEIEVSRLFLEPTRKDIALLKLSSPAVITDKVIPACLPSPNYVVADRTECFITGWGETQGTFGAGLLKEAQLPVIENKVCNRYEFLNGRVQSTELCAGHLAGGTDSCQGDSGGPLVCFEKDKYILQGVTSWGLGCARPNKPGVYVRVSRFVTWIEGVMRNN

Target: Human plasmin (Homo sapiens, UniProt P00747)
Experiment: Plasmin inhibition assay with chromogenic substrate S-2251, Dixon plot / Cornish-Bowden analysis
Type: biochemical
Conditions: role: inhibitor, S-2251 100-500 μM; for rp: relative potency = Ki^TXA/Ki^multi: TXA affinity molecules relative to TXA

Structure (SMILES) | Ki (read-out: Inhibition constant (Ki), TXA affinity molecules, human plasmin 42.5 nM, listed as PAMAM 8-TXA) [µM] | rp: relative potency = Ki^TXA/Ki^multi (plasmin) | rp/n: relative potency/number of TXA units (plasmin, relative to TXA per TXA unit)
NC[C@H]1CC[C@H](C(=O)NCCNC(=O)CCN(CCNC(=O)CCN(CCC(=O)NCCN(CCC(=O)NCCNC(=O)[C@H]2CC[C@H](CN)CC2)CCC(=O)NCCNC(=O)[C@H]2CC[C@H](CN)CC2)CCN(CCC(=O)NCCN(CCC(=O)NCCNC(=O)[C@H]2CC[C@H](CN)CC2)CCC(=O)NCCNC(=O)[C@H]2CC[C@H](CN)CC2)CCC(=O)NCCN(CCC(=O)NCCNC(=O)[C@H]2CC[C@H](CN)CC2)CCC(=O)NCCNC(=O)[C@H]2CC[C@H](CN)CC2)CCC(=O)NCCNC(=O)[C@H]2CC[C@H](CN)CC2)CC1 | 2.47 | 8548 | 1069
NC[C@H]1CC[C@H](C(=O)NCCNC(=O)CCN(CCNC(=O)CCN(CCNC(=O)CCN(CCC(=O)NCCN(CCC(=O)NCCN(CCC(=O)NCCNC(=O)[C@H]2CC[C@H](CN)CC2)CCC(=O)NCCNC(=O)[C@H]2CC[C@H](CN)CC2)CCC(=O)NCCN(CCC(=O)NCCNC(=O)[C@H]2CC[C@H](CN)CC2)CCC(=O)NCCNC(=O)[C@H]2CC[C@H](CN)CC2)CCN(CCC(=O)NCCN(CCC(=O)NCCN(CCC(=O)NCCNC(=O)[C@H]2CC[C@H](CN)CC2)CCC(=O)NCCNC(=O)[C@H]2CC[C@H](CN)CC2)CCC(=O)NCCN(CCC(=O)NCCNC(=O)[C@H]2CC[C@H](CN)CC2)CCC(=O)NCCNC(=O)[C@H]2CC[C@H](CN)CC2)CCC(=O)NCCN(CCC(=O)NCCN(CCC(=O)NCCNC(=O)[C@H]2CC[C@H](CN)CC2)CCC(=O)NCCNC(=O)[C@H]2CC[C@H](CN)CC2)CCC(=O)NCCN(CCC(=O)NCCNC(=O)[C@H]2CC[C@H](CN)CC2)CCC(=O)NCCNC(=O)[C@H]2CC[C@H](CN)CC2)CCC(=O)NCCN(CCC(=O)NCCNC(=O)[C@H]2CC[C@H](CN)CC2)CCC(=O)NCCNC(=O)[C@H]2CC[C@H](CN)CC2)CCC(=O)NCCNC(=O)[C@H]2CC[C@H](CN)CC2)CC1 |  | 5936 | 
